Results as given in patent publication US20240391902A1, “Crystalline Form of Compound” (Shenzhen Forward Pharmaceuticals Co., Limited, priority 2020, published 2024).
At least one read-out could not be matched to a standard name with certainty.

Test: Drug absorption test in male Han-Wister rats
Type: in vivo
Settings: intragastric administration
Procedure: Intravenous administration: Three healthy male Han-Wister rats having a body weight of 250-350 g were provided by Beijing Vital River Laboratory Animal Technology Co., Ltd. The above compound of Example 1 was administered intravenously at the doses (calculated based on free base) listed in Table 1 below, respectively. Before administration and 15 min, 0.5 h, 1.0 h, 2.0 h, 4.0 h, 8.0 h, 12 h, and 24 h after administration, jugular vein puncture was performed to take 0.05 mL of blood, plasma was separated and prepared, and the drug concentration in the plasma was measured by liquid chromatography-tandem mass spectrometry (LC-MS) to obtain a drug concentration-time curve.
Intragastric administration: Twelve healthy male Han-Wister rats having a body weight of 250-350 g were provided by Beijing Vital River Laboratory Animal Technology Co., Ltd. and randomly divided into 4 groups. The above compounds of Example 1, Example 2, Example 3 and Example 4 were administered intragastrically at the doses (calculated based on free base) listed in Table 2 below, respectively. […]

Structure (SMILES): C=CC(=O)Nc1cc(Nc2ncnc(-c3cn(C)c4ccccc34)n2)c(OC)cc1N(C)CCN(C)C [Example 22]
- bioavailability compared with the compound of formula (I) of Example 1: significantly better
